In US4581451A, “Preparation of di- and tri-substituted xanthine compounds” (priority 1980, dated 1986):
The name of at least one read-out is uncertain.

Experiment: behavioural study in rats: anxiety induced by a new environment (rearings and movements)
Assay type: in vivo, male Sprague-Dawley rats
Settings: movements to rearings gradient
Excerpt: The xanthines obtained in accordance with the preceding Examples were the subject of a behavioural study in rats as a function of the anxiety induced by a new environment. In rats, anxiety is manifested by rearing the animal on its two hind paws, whilst locomotive activity is expressed by their movements.
A state of anxiety is induced by confronting "naive" male Sprague-Dawley (Iffa-Credo, France) rats weighing from 260 to 300 g with a new environment in the form of cages of Macrolon (30×25 cm) which are situated in a sound-proofed air-conditioned room (22° C./50% relative humidity).
The number of rearings and movements is automatically determined by means of infrared photoelectric cells which only emit electrical pulses for the active movements of the animal and not for its static movements, such as those of its head and tail, for reasons of reproducibility. These photoelectric cells scan the cages at two different levels so as to distinguish the standing-up movements from the other movements. The number of rearings and movements is counted by the two rows of photoelectric cells, memorised and read out using a printer in accordance with a pre-established program.
The tested compound in solution in the form of its sodium salt is orally administered by oesophagus probe (the reference administration being formed by 6 ml/kg of distilled water) 30 minutes before the animals are placed in the cages. The number of rearings and movements is determined during the 15 minutes after they have been put into the cages in relation to the effect generated by the reference administration.
The ED 50 dose (expressed in mg/kg), i.e. the quantity of substance required to bring about a 50% variation in the motive activity in relation to the reference administration, is determined from the development of the effects of the tested substances on the number of movements and rearings as a function of the progressive doses administered expressed as a percentage of the movements and rearings counted for the reference administration.
The gradients of the regression curves corresponding to the movements and to the rearings are compared by recording the value of the gradient of the movement curve on the abscissa (d) and the value of the gradient of the rearing curve on the ordinant (r) of a system of rectungular axes.
The ratio of the gradient of the movements to that of the rearings is also determined, enabling the specificity of effect of a given substance on the anxiety state to be assessed.
The effect of a substance is determined by its position relative to the curve d=r of gradient=1. The substances situated on this curve have a similar effect on the rearings and movements, being sedatives with a non-specific effect (S.N.). For these compounds, the ED 50 value quoted corresponds to the mean taken from the two regression curves.
These compounds are sedatives of anxiolytic character (S.A.). In this case, the ED 50 value is calculated from the regression curve of the rearings.

Compound	Ratio of the gradients d/r
C=CCn1c(=O)c2[nH]cnc2n(CCCC)c1=O [Example 2, 1-allyl-3-butyl xanthine]	< 1
CCCCn1c(=O)n(CCC)c(=O)c2[nH]c(C)nc21 [Example 11, 1-propyl-3-butyl-8-methyl xanthine]	< 1
CCCn1c(=O)c2[nH]c(C)nc2n(CC(C)C)c1=O [Example 12, 1-propyl-3-isobutyl-8-methyl xanthine]	< 1
CNC1=Nc2ccc(Cl)cc2C(c2ccccc2)=[N+]([O-])C1 [chlordiazepoxide, reference compound]	< 1
Cn1c(=O)c2[nH]cnc2n(C)c1=O [theophylline, reference compound]	> 1
